PubChem BioAssay AID1259405 – NCATS, 2018

- Assay: 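Silenced genes that increase secreted GFP made by CHO cells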 (primary screen)
- Cell system: Chinese hamster CHO-K1 ovary cells with stable secreted eGFP expression
- Knock-down reagent: single siRNA against mouse genes, 0.8 pmol siRNA per well (2 µl of 400 nM stock)
- Timing: 3 days
- Measured: 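Percent of the per-plate non-targeting control median for intracellular GFP per well by laser scanning cytometry and for cell viability by ATP luminescence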
- Direction: GFP, % of control: higher = more GFP per well, higher productivity; viability (ATP), % of control: higher = more viable cells (more ATP)
- Rule for the call: 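Called active when intracellular GFP, relative to negative control, is at or above 120%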
In all, the deposit lists about 50,000 reagents; this is a part drawn at random. About 4,000 of all reagents (8%) count as active. 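Mouse siRNA library applied to hamster cells; one well for each siRNA.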 Reagents against one gene are numbered here.

Target gene | reagent | GFP, % of control | viability (ATP), % of control | Outcome
Serpinb10 | 1 | 65.4 | 80.5 | inactive
Serpinb10 | 2 | 70.5 | 84.1 | inactive
Serpinb10 | 3 | 89.9 | 77.8 | inactive
Dr1 (down-regulator of transcription 1) | 1 | 67 | 80.3 | inactive
Dr1 (down-regulator of transcription 1) | 2 | 66.8 | 60.5 | inactive
Dr1 (down-regulator of transcription 1) | 3 | 106 | 106 | inactive
Psme3ip1 (proteasome activator subunit 3 interacting protein 1) | 1 | 49.3 | 52.6 | inactive
Psme3ip1 (proteasome activator subunit 3 interacting protein 1) | 2 | 120 | 89 | active
Psme3ip1 (proteasome activator subunit 3 interacting protein 1) | 3 | 79.3 | 65.1 | inactive
Vmn1r83 (vomeronasal 1 receptor 83) | 1 | 132 | 85.9 | active
Vmn1r83 (vomeronasal 1 receptor 83) | 2 | 60.9 | 47.8 | inactive
Vmn1r83 (vomeronasal 1 receptor 83) | 3 | 76.1 | 71.1 | inactive
Or4c3 (olfactory receptor family 4 subfamily C member 3) | 1 | 147 | 106 | active
Or4c3 (olfactory receptor family 4 subfamily C member 3) | 2 | 96.5 | 85.8 | inactive
Or4c3 (olfactory receptor family 4 subfamily C member 3) | 3 | 112 | 112 | inactive
Wap (whey acidic protein) | 1 | 107 | 103 | inactive
Wap (whey acidic protein) | 2 | 42.1 | 63 | inactive
Wap (whey acidic protein) | 3 | 94.4 | 95.9 | inactive
Hpx (hemopexin) | 1 | 105 | 99.8 | inactive
Hpx (hemopexin) | 2 | 86.2 | 77.9 | inactive
Hpx (hemopexin) | 3 | 56.3 | 46.7 | inactive
Srpx (sushi-repeat-containing protein) | 1 | 108 | 91.2 | inactive
Srpx (sushi-repeat-containing protein) | 2 | 150 | 129 | active
Srpx (sushi-repeat-containing protein) | 3 | 119 | 96.9 | inactive
Epb41l2 (erythrocyte membrane protein band 4.1 like 2) | 1 | 66 | 74.4 | inactive
Epb41l2 (erythrocyte membrane protein band 4.1 like 2) | 2 | 70.9 | 74.7 | inactive
Epb41l2 (erythrocyte membrane protein band 4.1 like 2) | 3 | 73.8 | 86.1 | inactive
Kcnh6 | 1 | 94.1 | 107 | inactive
Kcnh6 | 2 | 45.6 | 105 | inactive
Kcnh6 | 3 | 99.5 | 90.7 | inactive
Cts8 (cathepsin 8) | 1 | 92.6 | 74.7 | inactive
Cts8 (cathepsin 8) | 2 | 75.4 | 71.8 | inactive
Cts8 (cathepsin 8) | 3 | 60.8 | 81.6 | inactive
Ppil1 (peptidylprolyl isomerase (cyclophilin)-like 1) | 1 | 75.4 | 97.2 | inactive
Ppil1 (peptidylprolyl isomerase (cyclophilin)-like 1) | 2 | 28.2 | 36.5 | inactive
Ppil1 (peptidylprolyl isomerase (cyclophilin)-like 1) | 3 | 63.7 | 69.8 | inactive
Lce1d (late cornified envelope 1D) | 1 | 102 | 94 | inactive
Lce1d (late cornified envelope 1D) | 2 | 97.1 | 121 | inactive
Lce1d (late cornified envelope 1D) | 3 | 200 | 149 | active
Gna14 (guanine nucleotide binding protein, alpha 14) | 1 | 107 | 96 | inactive
Gna14 (guanine nucleotide binding protein, alpha 14) | 2 | 65.9 | 31 | inactive
Gna14 (guanine nucleotide binding protein, alpha 14) | 3 | 12 | 13.8 | inactive
Olig1 (oligodendrocyte transcription factor 1) | 1 | 77.3 | 91.1 | inactive
Olig1 (oligodendrocyte transcription factor 1) | 2 | 53 | 69.1 | inactive
Olig1 (oligodendrocyte transcription factor 1) | 3 | 60 | 93.1 | inactive
Cldn15 (claudin 15) | 1 | 50.9 | 69.3 | inactive
Cldn15 (claudin 15) | 2 | 85.9 | 59.4 | inactive
Cldn15 (claudin 15) | 3 | 83.1 | 116 | inactive
Ppfia3 | 1 | 45.5 | 44.3 | inactive
Ppfia3 | 2 | 95.8 | 76.8 | inactive
Ppfia3 | 3 | 87.8 | 73 | inactive
Tas2r120 (taste receptor, type 2, member 120) | 1 | 45.7 | 66.8 | inactive
Tas2r120 (taste receptor, type 2, member 120) | 2 | 64.9 | 78.5 | inactive
Tas2r120 (taste receptor, type 2, member 120) | 3 | 66.6 | 69.2 | inactive
Slfn8 (schlafen 8) | 1 | 93.7 | 85.8 | inactive
Slfn8 (schlafen 8) | 2 | 53.9 | 56.6 | inactive
Slfn8 (schlafen 8) | 3 | 64.6 | 72.4 | inactive

Laid out differently: 8 of the entries above
| Target gene | reagent | GFP, % of control | viability (ATP), % of control | Outcome |
| --- | --- | --- | --- | --- |
| Psme3ip1 (proteasome activator subunit 3 interacting protein 1) | 3 | 79.3 | 65.1 | inactive |
| Vmn1r83 (vomeronasal 1 receptor 83) | 1 | 132 | 85.9 | active |
| Vmn1r83 (vomeronasal 1 receptor 83) | 2 | 60.9 | 47.8 | inactive |
| Vmn1r83 (vomeronasal 1 receptor 83) | 3 | 76.1 | 71.1 | inactive |
| Or4c3 (olfactory receptor family 4 subfamily C member 3) | 1 | 147 | 106 | active |
| Or4c3 (olfactory receptor family 4 subfamily C member 3) | 2 | 96.5 | 85.8 | inactive |
| Or4c3 (olfactory receptor family 4 subfamily C member 3) | 3 | 112 | 112 | inactive |
| Wap (whey acidic protein) | 1 | 107 | 103 | inactive |
